According to US20060111271A1 (priority 2004, published 2006):
At least one compound was matched to its structure with a doubt left.

System: anti-nicotine antibodies
Format: binding
Conditions: antibodies elicited by Nic-O-Su-Cholera Toxin B conjugates, relative to nicotine

In the case of `CC(=O)OCC[N+](C)(C)C` [acetylcholine], the immunologic cross-reactivity is reported as 0.05%.
